Measured values published in patent US20090221423A1, “Methods to Use 3-Pyridyl Derivatives as Pesticides” (BASF SE, priority 2006, published 2009).
Some entries share one result that the patent states for a list of compounds. At least one structure is not confirmed: it was looked up by name or label, or the drawing left a doubt.

Experiments:
Assay type in all cases: in vivo
[1] = system: Cotton aphid (Aphis gossypii); assay: Activity against cotton aphid (cotton cotyledon dip); settings: at 300 ppm; cotyledons dipped; counts after 5 days; compared to 0% mortality of untreated controls
[2] = system: Green peach aphid (Myzus persicae); assay: Green peach aphid (pepper plant leaf dip); settings: at 300 ppm; pepper leaves dipped; after 5 days; compared to 0% mortality of untreated controls
[3] = system: Cowpea aphid (Aphis craccivora); assay: Activity against cowpea aphid (sprayed potted cowpea plants); settings: at 300 ppm, compared to 0% mortality of untreated controls
[4] = system: Silverleaf whitefly (Bemisia argentifolii); assay: Activity against silverleaf whitefly (cotton cotyledon dip); settings: at 300 ppm; cotyledons dipped; assessed 3 days after treatment; compared to 0% mortality of untreated controls

## CCCC(=O)N1CCCC1COc1ccc(Cl)nc1 (stereo not shown) [IA-81 of Table 3]
[1]
  mortality: over 90%
[2]
  mortality: over 90%
[3]
  mortality: over 90%

## COc1ccc(C(=O)N2CCCC2COc2ccc(Cl)nc2)cc1 (stereo not shown) [IA-1801 of Table 3]
[1]
  mortality: over 90%
[2]
  mortality: over 90%
[3]
  mortality: over 90%

## O=C(C1CC1)N1CCCC1COc1cncc(Cl)c1 (stereo not shown) [IA-523 of Table I]
[4]
  mortality: over 75%
[1]
  mortality: over 90%
[2]
  mortality: over 90%
[3]
  mortality: over 90%

## O=C(C1CCCC1)N1CCC1COc1ccc(F)nc1 (stereo not shown) [I.1-73]
[4]
  mortality: over 75%
[1]
  mortality: over 90%
[2]
  mortality: over 90%
[3]
  mortality: over 90%

## O=C(C1CCCCC1)N1CCC1COc1ccc(F)nc1 (stereo not shown) [I.1-74]
[4]
  mortality: over 75%
[1]
  mortality: over 90%
[2]
  mortality: over 90%
[3]
  mortality: over 90%

## Cc1ccc(C(=O)N2CCCC2COc2ccc(Cl)nc2)cc1Cl (stereo not shown) [IA-2001 of Table 3]
[1]
  mortality: over 90%
[2]
  mortality: over 90%
[3]
  mortality: over 90%

## O=C(c1ccncc1)N1CCCC1COc1ccc(Cl)nc1 (stereo not shown) [IA-721 of Table 3]
[1]
  mortality: over 90%
[2]
  mortality: over 90%
[3]
  mortality: over 90%

## O=C(c1cccs1)N1CCC1COc1ccc(F)nc1 (stereo not shown) [I.1-75]
[1]
  mortality: over 90%
[2]
  mortality: over 90%
[3]
  mortality: over 90%

## CC(C)C(=O)N1CCCC1COc1ccc(Cl)nc1 (stereo not shown) [IA-161 of Table 3]
[1]
  mortality: over 90%
[2]
  mortality: over 90%
[3]
  mortality: over 90%

## CCCC#Cc1cncc(OCC2CCN2C(=O)c2ccccc2)c1 (stereo not shown) [I.1-77]
[1]
  mortality: over 90%
[2]
  mortality: over 90%
[3]
  mortality: over 90%

## CC(=O)N1CCCC1COc1cncc(Br)c1 (stereo not shown) [IA-4 of Table I]
[1]
  mortality: over 90%
[2]
  mortality: over 90%
[3]
  mortality: over 90%

## O=C(c1ccsc1)N1CCCC1COc1ccc(Cl)nc1 (stereo not shown) [IA-761 of Table 3]
[1]
  mortality: over 90%
[2]
  mortality: over 90%
[3]
  mortality: over 90%

## O=C(c1ccc(C(F)(F)F)cc1)N1CCCC1COc1cncc(Cl)c1 (stereo not shown) [IA-1883 of Table I]
[1]
  mortality: over 90%
[2]
  mortality: over 90%
[3]
  mortality: over 90%

## O=C(C1CC1)N1CCCC1COc1ccc(Cl)nc1 (stereo not shown) [IA-521 of Table 3]
[1]
  mortality: over 90%
[2]
  mortality: over 90%
[3]
  mortality: over 90%

## O=C(c1ccccc1)N1CCC1COc1cncc(C#CC2CCCC2)c1 (stereo not shown) [I.1-76]
[4]
  mortality: over 75%
[1]
  mortality: over 90%
[2]
  mortality: over 90%
[3]
  mortality: over 90%
